# The other results are listed elsewhere or left out.
# B1: PP2A1 (Arabidopsis thaliana) (protein)
# chain: MFRNQDSKYLIPVQKEAPPVTTLPMKASTVKSPHNCEAILRDADPPISLSSVNLSEQLRSGVFLKPKKQIKYWVDERNSNCFMLFAKNLSITWSDDVNYWTWFTEKESPNENVEAVGLKNVCWLDITGKFDTRNLTPGIVYEVVFKVKLEDPAYGWDTPVNLKLVLPNGKEKPQEKKVSLRELPRYKWVDVRVGEFVPEKSAAGEITFSMYEHAAGVWKKGLSLKGVAIRPKQHHHHHH
# Columns and labels:
# Assay in all cases: glycan array binding signal (z-score within array); higher = stronger binding
# Conditions in all cases: glycan notation: IUPAC condensed, linker removed
# Gal(b1-3)Gal = biological target: Gal(b1-3)Gal
# Summary of the method: (§1)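 The binding signal is a Z-score computed within each array. Data were drawn from 3228 arrays in the Consortium for Functional Glycomics database, restricted to those with a known protein sequence. Scores were averaged over arrays of the same protein sequence at different concentrations or buffers, and over linkers, and negative values can be taken as non-binding.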
# Gal(b1-3)Gal(b1-4)GlcNAc = biological target: Gal(b1-3)Gal(b1-4)GlcNAc
# Summary of the method: as §1
# [1] = biological target: Gal(b1-3)Gal(b1-4)GlcNAc(b1-2)Man(a1-3)[Gal(b1-3)Gal(b1-4)GlcNAc(b1-2)Man(a1-6)]Man(b1-4)GlcNAc(b1-4)GlcNAc
# Summary of the method: as §1
# Gal(b1-3)GalNAc = biological target: Gal(b1-3)GalNAc
# Summary of the method: as §1
# [2] = biological target: Gal(b1-3)GalNAc(a1-3)[Fuc(a1-2)]Gal(b1-4)Glc
# Summary of the method: as §1
# [3] = biological target: Gal(b1-3)GalNAc(a1-3)[Fuc(a1-2)]Gal(b1-4)GlcNAc
# Summary of the method: as §1
# [4] = biological target: Gal(b1-3)GalNAc(b1-3)Gal(a1-4)Gal(b1-4)Glc
# Summary of the method: as §1
# [5] = biological target: Gal(b1-3)GalNAc(b1-4)Gal(b1-4)Glc
# Summary of the method: as §1
# [6] = biological target: Gal(b1-3)GalNAc(b1-4)[Neu5Ac(a2-3)]Gal(b1-4)Glc
# Summary of the method: as §1
# Gal(b1-3)GlcNAc = biological target: Gal(b1-3)GlcNAc
# Summary of the method: as §1
# [7] = biological target: Gal(b1-3)GlcNAc(b1-2)Man(a1-3)[Gal(b1-3)GlcNAc(b1-2)Man(a1-6)]Man(b1-4)GlcNAc(b1-4)GlcNAc
# Summary of the method: as §1
# [8] = biological target: Gal(b1-3)GlcNAc(b1-2)Man(a1-3)[Gal(b1-3)GlcNAc(b1-2)Man(a1-6)]Man(b1-4)GlcNAc(b1-4)[Fuc(a1-6)]GlcNAc
# Summary of the method: as §1
# [9] = biological target: Gal(b1-3)GlcNAc(b1-3)Gal(b1-3)GlcNAc
# Summary of the method: as §1
# [10] = biological target: Gal(b1-3)GlcNAc(b1-3)Gal(b1-4)Glc
# Summary of the method: as §1
# [11] = biological target: Gal(b1-3)GlcNAc(b1-3)Gal(b1-4)GlcNAc
# Summary of the method: as §1
# [12] = biological target: Gal(b1-3)[Fuc(a1-4)]GlcNAc
# Summary of the method: as §1
# [13] = biological target: Gal(b1-3)[Fuc(a1-4)]GlcNAc(b1-2)Man(a1-3)[Gal(b1-3)[Fuc(a1-4)]GlcNAc(b1-2)Man(a1-6)]Man(b1-4)GlcNAc(b1-4)GlcNAc
# Summary of the method: as §1
# [14] = biological target: Gal(b1-3)[Fuc(a1-4)]GlcNAc(b1-2)Man(a1-3)[Gal(b1-3)[Fuc(a1-4)]GlcNAc(b1-2)Man(a1-6)]Man(b1-4)GlcNAc(b1-4)[Fuc(a1-6)]GlcNAc
# Summary of the method: as §1
# [15] = biological target: Gal(b1-3)[Fuc(a1-4)]GlcNAc(b1-3)Gal(b1-3)[Fuc(a1-4)]GlcNAc
# Summary of the method: as §1
# [16] = biological target: Gal(b1-3)[Fuc(a1-4)]GlcNAc(b1-3)Gal(b1-4)GlcNAc
# Summary of the method: as §1
# [17] = biological target: Gal(b1-3)[Fuc(a1-4)]GlcNAc(b1-3)Gal(b1-4)[Fuc(a1-3)]GlcNAc
# Summary of the method: as §1
# [18] = biological target: Gal(b1-3)[GlcNAc(b1-6)]GalNAc
# Summary of the method: as §1
# [19] = biological target: Gal(b1-3)[Neu5Ac(a2-6)]GalNAc
# Summary of the method: as §1
# [20] = biological target: Gal(b1-3)[Neu5Ac(a2-6)]GlcNAc(b1-6)Gal(b1-4)Glc
# Summary of the method: as §1
# [21] = biological target: Gal(b1-3)[Neu5Ac(b2-6)]GalNAc
# Summary of the method: as §1
# [22] = biological target: Gal(b1-4)GalNAc(a1-3)[Fuc(a1-2)]Gal(b1-4)GlcNAc
# Summary of the method: as §1
# [23] = biological target: Gal(b1-4)GalNAc(b1-3)[Fuc(a1-2)]Gal(b1-4)GlcNAc
# Summary of the method: as §1
# Gal(b1-4)Glc = biological target: Gal(b1-4)Glc
# Summary of the method: as §1
# Gal(b1-4)Glc6S = biological target: Gal(b1-4)Glc6S
# Summary of the method: as §1
# Gal(b1-4)GlcNAc = biological target: Gal(b1-4)GlcNAc
# Summary of the method: as §1
# [24] = biological target: Gal(b1-4)GlcNAc(a1-6)Gal(b1-4)GlcNAc
# Summary of the method: as §1
# [25] = biological target: Gal(b1-4)GlcNAc(b1-2)Man(a1-3)Man(b1-4)GlcNAc(b1-4)GlcNAc
# Summary of the method: as §1
# [26] = biological target: Gal(b1-4)GlcNAc(b1-2)Man(a1-3)[Gal(b1-4)GlcNAc(b1-2)Man(a1-6)]Man(b1-4)GlcNAc(b1-4)GlcNAc
# Summary of the method: as §1
# [27] = biological target: Gal(b1-4)GlcNAc(b1-2)Man(a1-3)[Gal(b1-4)GlcNAc(b1-2)Man(a1-6)]Man(b1-4)GlcNAc(b1-4)[Fuc(a1-6)]GlcNAc
# Summary of the method: as §1
# [28] = biological target: Gal(b1-4)GlcNAc(b1-2)Man(a1-3)[Man(a1-6)]Man(b1-4)GlcNAc(b1-4)GlcNAc
# Summary of the method: as §1
# [29] = biological target: Gal(b1-4)GlcNAc(b1-2)Man(a1-6)Man(b1-4)GlcNAc(b1-4)GlcNAc
# Summary of the method: as §1
# [30] = biological target: Gal(b1-4)GlcNAc(b1-2)Man(a1-6)[Man(a1-3)]Man(b1-4)GlcNAc(b1-4)GlcNAc
# Summary of the method: as §1
# [31] = biological target: Gal(b1-4)GlcNAc(b1-2)[Gal(b1-4)GlcNAc(b1-4)]Man(a1-3)[Gal(b1-4)GlcNAc(b1-2)Man(a1-6)]Man(b1-4)GlcNAc(b1-4)GlcNAc
# Summary of the method: as §1
# [32] = biological target: Gal(b1-4)GlcNAc(b1-3)Gal(b1-3)GlcNAc
# Summary of the method: as §1
# [33] = biological target: Gal(b1-4)GlcNAc(b1-3)Gal(b1-4)Glc
# Summary of the method: as §1
# [34] = biological target: Gal(b1-4)GlcNAc(b1-3)Gal(b1-4)GlcNAc
# Summary of the method: as §1
# [35] = biological target: Gal(b1-4)GlcNAc(b1-3)Gal(b1-4)GlcNAc(b1-3)Gal(b1-4)GlcNAc
# Summary of the method: as §1
# [36] = biological target: Gal(b1-4)GlcNAc(b1-3)Gal(b1-4)[Fuc(a1-3)]GlcNAc(b1-3)Gal(b1-4)[Fuc(a1-3)]GlcNAc
# Summary of the method: as §1
# [37] = biological target: Gal(b1-4)GlcNAc(b1-3)GalNAc
# Summary of the method: as §1
# [38] = biological target: Gal(b1-4)GlcNAc(b1-3)[Gal(b1-4)GlcNAc(b1-6)]Gal(b1-4)GlcNAc
# Summary of the method: as §1
binder,measurement,setting,value
B1,glycan array binding signal (z-score),Gal(b1-3)Gal,-0.257
same,glycan array binding signal (z-score),Gal(b1-3)Gal(b1-4)GlcNAc,-0.619
same,glycan array binding signal (z-score),[1],0.79
same,glycan array binding signal (z-score),Gal(b1-3)GalNAc,-0.309
same,glycan array binding signal (z-score),[2],-0.363
same,glycan array binding signal (z-score),[3],-0.287
same,glycan array binding signal (z-score),[4],0.083
same,glycan array binding signal (z-score),[5],-0.462
same,glycan array binding signal (z-score),[6],-0.569
same,glycan array binding signal (z-score),Gal(b1-3)GlcNAc,-0.488
same,glycan array binding signal (z-score),[7],1.27
same,glycan array binding signal (z-score),[8],0.342
same,glycan array binding signal (z-score),[9],-0.441
same,glycan array binding signal (z-score),[10],-0.088
same,glycan array binding signal (z-score),[11],-0.087
same,glycan array binding signal (z-score),[12],-0.368
same,glycan array binding signal (z-score),[13],0.314
same,glycan array binding signal (z-score),[14],1.34
same,glycan array binding signal (z-score),[15],-0.222
same,glycan array binding signal (z-score),[16],-0.485
same,glycan array binding signal (z-score),[17],-0.295
same,glycan array binding signal (z-score),[18],-0.306
same,glycan array binding signal (z-score),[19],-0.322
same,glycan array binding signal (z-score),[20],0.183
same,glycan array binding signal (z-score),[21],-0.382
same,glycan array binding signal (z-score),[22],-0.498
same,glycan array binding signal (z-score),[23],-0.362
same,glycan array binding signal (z-score),Gal(b1-4)Glc,-0.162
same,glycan array binding signal (z-score),Gal(b1-4)Glc6S,0.116
same,glycan array binding signal (z-score),Gal(b1-4)GlcNAc,-0.411
same,glycan array binding signal (z-score),[24],-0.205
same,glycan array binding signal (z-score),[25],1.02
same,glycan array binding signal (z-score),[26],0.914
same,glycan array binding signal (z-score),[27],0.074
same,glycan array binding signal (z-score),[28],2.93
same,glycan array binding signal (z-score),[29],0.362
same,glycan array binding signal (z-score),[30],0.438
same,glycan array binding signal (z-score),[31],0.104
same,glycan array binding signal (z-score),[32],-0.565
same,glycan array binding signal (z-score),[33],-0.123
same,glycan array binding signal (z-score),[34],0.087
same,glycan array binding signal (z-score),[35],-0.223
same,glycan array binding signal (z-score),[36],-0.545
same,glycan array binding signal (z-score),[37],-0.19
same,glycan array binding signal (z-score),[38],-0.579

# Reprinted at random: 2 entries already listed, in no set order.
binder,measurement,setting,value
B1,glycan array binding signal (z-score),[14],1.34
same,glycan array binding signal (z-score),[32],-0.565
